Test [1] deals with T1, Thermoplasma acidophilum exosome subunit Rrp42, truncated core domain, residues 20-240 (TaciRrp42) (Thermoplasma acidophilum) (UniProt Q9HIP1).
T1 sequence (chain, RED-tris-NTA fluorescent dye on the His tag (in MST)): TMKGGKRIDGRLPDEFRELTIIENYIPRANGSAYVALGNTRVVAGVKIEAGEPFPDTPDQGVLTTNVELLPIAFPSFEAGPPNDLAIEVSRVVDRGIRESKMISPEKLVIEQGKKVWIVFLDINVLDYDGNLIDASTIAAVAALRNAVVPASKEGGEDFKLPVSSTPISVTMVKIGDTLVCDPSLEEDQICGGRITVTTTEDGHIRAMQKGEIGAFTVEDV
In words: crystal structure; TaciRrp41:42 binary complex with phosphate, 2.3 Å, space group P2(1)3; hanging drop, 0.08 M sodium acetate trihydrate, 1.6 M ammonium sulfate, 20% glycerol, pH 4.9, 22 °C; both purified.

Test [2] concerns the target T1, Thermoplasma acidophilum exosome subunit Rrp42, truncated core domain, residues 20-240 (TaciRrp42) (Thermoplasma acidophilum). The test can be described thus: crystal structure; TaciRrp4:41:42 ternary complex, 3.5 Å, space group P3(2)21; TaciRrp41:42 and TaciRrp4 incubated 1 h at room temperature and separated by gel filtration; hanging drop, 0.08 M sodium acetate trihydrate, 1.6 M ammonium sulfate, 20% glycerol, pH 4.9, 22 °C; both purified. Background: Size exclusion chromatography separates by hydrodynamic size, large species first.

In test [3] the target is T2, TaciRrp41:42 complex (Thermoplasma acidophilum exosome core, Rrp41 with truncated Rrp42) (Thermoplasma acidophilum) (UniProt Q9HIP2+Q9HIP1).
T2 sequence 1: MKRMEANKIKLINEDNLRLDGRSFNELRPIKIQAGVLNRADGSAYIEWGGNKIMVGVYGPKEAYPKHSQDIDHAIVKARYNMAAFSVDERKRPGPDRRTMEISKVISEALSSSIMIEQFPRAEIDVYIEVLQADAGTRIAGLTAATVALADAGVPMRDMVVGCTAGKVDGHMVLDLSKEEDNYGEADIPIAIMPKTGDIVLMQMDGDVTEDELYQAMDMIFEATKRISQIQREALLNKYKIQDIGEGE
T2 sequence 2: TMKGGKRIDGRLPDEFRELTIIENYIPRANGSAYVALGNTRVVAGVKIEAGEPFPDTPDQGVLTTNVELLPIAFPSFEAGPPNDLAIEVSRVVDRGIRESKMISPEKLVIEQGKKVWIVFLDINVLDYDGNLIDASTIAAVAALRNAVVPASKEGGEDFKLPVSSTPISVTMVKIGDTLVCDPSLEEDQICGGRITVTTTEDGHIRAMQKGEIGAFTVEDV
Described as above.

No constants are given. Whether binding was seen depends on the method and setting. Some results given as binding are weak or reduced against the parent protein; the word gives no strength.

B1: Thermoplasma acidophilum exosome subunit Rrp41 (TaciRrp41) (protein, UniProt Q9HIP2 1-248)
chain: MKRMEANKIKLINEDNLRLDGRSFNELRPIKIQAGVLNRADGSAYIEWGGNKIMVGVYGPKEAYPKHSQDIDHAIVKARYNMAAFSVDERKRPGPDRRTMEISKVISEALSSSIMIEQFPRAEIDVYIEVLQADAGTRIAGLTAATVALADAGVPMRDMVVGCTAGKVDGHMVLDLSKEEDNYGEADIPIAIMPKTGDIVLMQMDGDVTEDELYQAMDMIFEATKRISQIQREALLNKYKIQDIGEGE
In the case of B1, the binding entry in test [1] and in test [2] was “binds” in each case.

B2: Thermoplasma acidophilum exosome subunit Rrp4 (TaciRrp4) (natural protein, UniProt Q9HIP3 1-236, looked up)
chain: MYQLGDVKKIVLPGDPIEVQGKMRNGVYRGQDNRYYSEYFGTLQVNDQFVDVVPFSGQYIPRKGDKVIGKVIEVGPSTWTVDINSPYFAMLHMNDTPWRMSSGDLKRYLNAGDYIYAKIMSVNEIKESWLTLKEPGLKKLEGGHMVLIHASRVPRVIGKGGGMVNMVKELTATRIIIGQNGLIWIDGPIEGVTMAIAAIEMIEREAHTEGLTARVESFLKELKGEKDGSQQNKADQ
notes: Exosome complex component Rrp4 of Thermoplasma acidophilum (N-terminal domain, S1 domain, KH domain); also called TaciRrp4-capping protein; source: E. coli Rosetta, from pET22b; purified (Ni-NTA, Superdex 200)
As for B2, the binding result in test [3] and in test [2] was “binds” throughout.

The record behind these values is publication PMC11201974, “Structural Insights into the Rrp4 Subunit from the Crystal Structure of the Thermoplasma acidophilum Exosome” (Biomolecules, 2024).
